Reference: PubChem BioAssay AID182 (DTP/NCI, 2004)
The list does not hold the whole screen: it is rich in T/C values a quarter to a half above the control, in often repeated tests (any T/C) and in doses without a T/C. Other doses and runs of a compound stand elsewhere. T/C is the treated group as % of the vehicle group. Some doses have a count of surviving animals in place of a T/C: the source holds a T/C of zero for them, seemingly a mark for toxic or unscored doses. Some doses without a T/C left all or most animals alive at the check, yet need not have been tolerated: the source hardly ever lists a survival T/C far under the control, and the zero likely stands for such cases as well. Counts of survivors are from the toxicity check (mostly the fifth day) where no day follows; animals may have died later. Schedule codes are those of the source, read here as Q, the interval in days (D) or hours (H), X, the number of doses. For survival time, the PubChem record calls one and a half times the control and up active, and a quarter to a half above the control has no call in these data; cut-offs in other NCI protocols can differ. Some T/C values carry the count of animals alive at the toxicity check (mostly the fifth day); where none is given, no animal had died by that day. Starred links: 1 amine or outer side, 2 acyl side, 3 side chain; linkers in the order of their positions; H or OH if unused. Positions of bridges follow the written chain, without caps; N, C: chain ends. Non-standard residues stand in square brackets, D forms with d. Residues, ends and D or L forms follow the SMILES beside them. Chains are numbered I, II in the order given. Actinocin(9to1) = Cc1c2oc3c(C)ccc(C(=O)[*:1])c3nc-2c(C(=O)[*:2])c(N)c1=O; aThr = C[C@H](O)[C@H](N)C(=O)O; NMeV = CN[C@H](C(=O)O)C(C)C; Sar = CNCC(=O)O

System: BDF1 mice, P388/ADR leukemia ip, median survival T/C
Experiment: NCI In Vivo Anticancer Drug Screen. Data for tumor model P388 Leukemia resistant to Adriamycin; NSC 123127, Developed at Scr 06 and 41 (intraperitoneal) in B6D2F1 (BDF1) mice
Conditions: T/C endpoint: median survival time, higher T/C = longer survival
Method: The antitumor activity of compounds was measured in mice bearing transplantable tumors. Survival or tumor size were measured and the results are expressed as the measurement made in the treated group (T) divided by the measurement made in the vehicle treated control group (C). The tumor model used in this assay is P388 Leukemia resistant to Adriamycin; NSC 123127, Developed at Scr 06 and 41 (intraperitoneal) in B6D2F1 (BDF1) mice

[1] = dose: 500.0 mg/kg/injection, schedule: Q04DX003 (ip), vehicle: Klucel (hydroxypropylcellulose) (HPC)
[2] = dose: 8.0 mg/kg/injection, schedule: Q04DX003 (ip), vehicle: water
[3] = dose: 13.33 mg/kg/injection, schedule: Q04DX003 (ip), vehicle: water
[4] = dose: 3.0 mg/kg/injection, schedule: Q04DX003 (ip), vehicle: water
[5] = dose: 1.08 mg/kg/injection, schedule: Q04DX003 (ip), vehicle: water
[6] = dose: 1.8 mg/kg/injection, schedule: Q04DX003 (ip), vehicle: water

SMILES: COc1cc(O)c2c(c1)C(=O)c1cc3c(c(O)c1C2=O)C(OC1OC(C)C(O)C(O)C1OC)C(OC)C(C)(O)C3=O (centres undefined)
- survivor count (dose: 300.0 mg/kg/injection, schedule: Q04DX003 (ip), vehicle: Klucel (hydroxypropylcellulose) (HPC)): 7 of 8
- survivor count [1]: 8 of 8

SMILES: CC[C@](O)(C(=O)O)c1cc2n(c(=O)c1CO)Cc1cc3ccccc3nc1-2
- survivor count (dose: 83.3 mg/kg/injection, schedule: Q04DX003 (ip), vehicle: saline): 6 of 8

SMILES: Cc1c2oc3c(C)ccc(C(=O)N[C@@H]4C(=O)N[C@H](C(C)C)C(=O)N5CCC[C@H]5C(=O)N(C)CC(=O)N(C)[C@@H](C(C)C)C(=O)O[C@H]4C)c3nc-2c(C(=O)N[C@@H]2C(=O)N[C@H](C(C)C)C(=O)N3CCC[C@H]3C(=O)N(C)CC(=O)N(C)[C@@H](C(C)C)C(=O)O[C@H]2C)c(N)c1=O (I: [aThr][dV]P[Sar][NMeV] / II: [aThr][dV]P[Sar][NMeV]; ester I:1-I:C, II:1-II:C; linker I:N-II:N via Actinocin(9to1))
- T/C (dose: 0.11 mg/kg/injection, schedule: Q04DX003 (ip), vehicle: saline): 126 % of control
- T/C (dose: 0.18 mg/kg/injection, schedule: Q04DX003 (ip), vehicle: saline): 145 % of control
- survivor count (dose: 0.5 mg/kg/injection, schedule: Q04DX003 (ip), vehicle: saline): 8 of 8
- T/C (dose: 180.0 micrograms/kg/injection, schedule: Q04DX003 (ip), vehicle: saline + alcohol): 126 % of control
- survivor count (dose: 500.0 micrograms/kg/injection, schedule: Q04DX003 (ip), vehicle: saline + alcohol): 7 of 8

SMILES: O=C[C@@H](CO)O[C@H](C=O)n1cnc2c(=O)[nH]cnc21
- T/C (dose: 108.0 mg/kg/injection, schedule: Q04DX003 (ip), vehicle: water): 140 % of control
- survivor count (dose: 500.0 mg/kg/injection, schedule: Q04DX003 (ip), vehicle: water): 0 of 8

SMILES: CCCCCCCC(=O)OCC(=O)[C@]1(O)Cc2c(O)c3c(c(O)c2[C@@H](OC2CC(N)C(O)C(C)O2)C1)C(=O)c1c(OC)cccc1C3=O (some centres undefined)
- T/C (dose: 4.8 mg/kg/injection, schedule: Q04DX003 (ip), vehicle: water): 127 % of control
- T/C [2]: 127 % of control
- survivor count [3]: 8 of 8

SMILES: CC[C@@]1(O)C[C@H](OC2CC(N(C)C)C(OC3CC(O)C(OC4CC(O)C(O)C(C)O4)C(C)O3)C(C)O2)c2c(cc3c(c2O)C(=O)c2c(O)ccc(O)c2C3=O)[C@H]1C(=O)OC (some centres undefined)
- survivor count (dose: 5.0 mg/kg/injection, schedule: Q04DX003 (ip), vehicle: water): 6 of 8

SMILES: O=CC(NC(=O)N(CCCl)N=O)C(O)C(O)C(O)CO (centres undefined)
- survivor count (dose: 30.0 mg/kg/injection, schedule: Q04DX003 (ip), vehicle: saline): 8 of 8

SMILES: CSCS(=O)C[C@H](CO)NC(=O)/C=C/c1c(C)[nH]c(=O)[nH]c1=O (some centres undefined)
- survivor count (dose: 3.33 mg/kg/injection, schedule: Q04DX003 (ip), vehicle: saline): 7 of 8
- survivor count (dose: 4.0 mg/kg/injection, schedule: Q04DX003 (ip), vehicle: saline): 4 of 8
- survivor count (dose: 800.0 micrograms/kg/injection, schedule: Q01DX009 (ip), vehicle: saline): 8 of 8

SMILES: CCCCC(=O)OCC(=O)[C@]1(O)Cc2c(O)c3c(c(O)c2[C@@H](OC2CC(NC(=O)C(F)(F)F)C(O)C(C)O2)C1)C(=O)c1c(OC)cccc1C3=O (some centres undefined)
- T/C (dose: 36.0 mg/kg/injection, schedule: Q01DX004 (ip), vehicle: saline with Tween-80): 130 % of control
- survivor count (dose: 60.0 mg/kg/injection, schedule: Q01DX004 (ip), vehicle: saline with Tween-80): 7 of 8

SMILES: CC(CN1CC(=O)NC(=O)C1)N1CC(=O)NC(=O)C1 (centres undefined)
- T/C (dose: 240.0 mg/kg/injection, schedule: Q04DX003 (ip), vehicle: Klucel (hydroxypropylcellulose) (HPC)): 135 % of control
- survivor count (dose: 360.0 mg/kg/injection, schedule: Q04DX003 (ip), vehicle: Klucel (hydroxypropylcellulose) (HPC)): 8 of 8
- T/C (dose: 400.0 mg/kg/injection, schedule: Q04DX003 (ip), vehicle: Klucel (hydroxypropylcellulose) (HPC)): 130 % of control [7 of 8 alive]
- survivor count [1]: 7 of 8
- survivor count (dose: 600.0 mg/kg/injection, schedule: Q04DX003 (ip), vehicle: Klucel (hydroxypropylcellulose) (HPC)): 8 of 8
- survivor count (dose: 1000.0 mg/kg/injection, schedule: Q04DX003 (ip), vehicle: Klucel (hydroxypropylcellulose) (HPC)): 6 of 8

SMILES: CCC1(O)CC(OC2CC(N(C)C)C(OC3CC(O)C(OC4CCC(=O)C(C)O4)C(C)O3)C(C)O2)c2c(cc3c(c2O)C(=O)c2c(O)ccc(O)c2C3=O)C1C(=O)OC (centres undefined)
- survivor count [2]: 8 of 8

SMILES: COC(=O)C[C@](O)(CCCC(C)(C)O)C(=O)O[C@@H]1C(OC)=C[C@]23CCCN2CCc2cc4c(cc2[C@H]13)OCO4
- survivor count (dose: 3.33 mg/kg/injection, schedule: Q04DX003 (ip), vehicle: acid diluted with saline): 8 of 8

SMILES: COC(=O)[C@@H]1c2cc3c(c(O)c2[C@@H](OC2OC(C)C(OC)C(C)(OC)C2OC)C[C@]1(C)O)C(=O)c1c(O)cc2c(c1C3=O)O[C@H]1O[C@]2(C)[C@H](O)[C@@H](N(C)C)[C@@H]1O (some centres undefined)
- survivor count [4]: 8 of 8
- survivor count (dose: 3.6 mg/kg/injection, schedule: Q04DX003 (ip), vehicle: water): 7 of 7
- survivor count (dose: 6.0 mg/kg/injection, schedule: Q04DX003 (ip), vehicle: water): 7 of 8

SMILES: S=c1nc[nH]c2nc[nH]c12
- survivor count (dose: 120.0 mg/kg/injection, schedule: Q01DX009 (ip), vehicle: alkali diluted with saline): 8 of 8
- survivor count (dose: 200.0 mg/kg/injection, schedule: Q01DX009 (ip), vehicle: alkali diluted with saline): 6 of 8

SMILES: COc1cc2cc3c4cc(OC)c(OC)cc4cc[n+]3c(C)c2cc1OC (tested in a mixture with another compound)
- survivor count (dose: 240.0 mg/kg/injection, schedule: Q04DX003 (ip), vehicle: other): 3 of 8
- survivor count (dose: 400.0 mg/kg/injection, schedule: Q04DX003 (ip), vehicle: other): 2 of 8

SMILES: CO[C@H](C(=O)[C@@H](O)[C@@H](C)O)[C@@H]1Cc2cc3cc(OC4CC(OC5CC(O)C(O)C(C)O5)C(O)C(C)O4)c(C)c(O)c3c(O)c2C(=O)[C@H]1OC1CC(OC2CC(OC3CC(C)(O)C(O)C(C)O3)C(O)C(C)O2)C(O)C(C)O1 (some centres undefined)
- survivor count (dose: 0.9 mg/kg/injection, schedule: Q01DX005 (ip), vehicle: water): 8 of 8
- survivor count [5]: 7 of 8
- survivor count (dose: 1.5 mg/kg/injection, schedule: Q01DX005 (ip), vehicle: water): 2 of 8
- survivor count [6]: 5 of 8
- survivor count [4]: 2 of 7

SMILES: CC(=O)[C@]1(O)Cc2c(O)c3c(c(O)c2[C@@H](OC2CC(N)C(O)C(C)O2)C1)C(=O)c1c(O)cccc1C3=O (some centres undefined)
- survivor count (dose: 0.9 mg/kg/injection, schedule: Q04DX003 (ip), vehicle: water): 8 of 8
- survivor count [5]: 8 of 8
- survivor count (dose: 1.5 mg/kg/injection, schedule: Q04DX003 (ip), vehicle: water): 8 of 8
- survivor count [6]: 8 of 8

SMILES: O=C1c2ccccc2C(=O)c2c(NCCNCCO)ccc(NCCNCCO)c21
- survivor count (dose: 60.0 mg/kg/injection, schedule: Q04DX003 (ip), vehicle: saline + alcohol): 8 of 8

SMILES: C[n+]1ccc(Nc2ccc(NC(=O)c3ccc(Nc4cc[n+](C)c5ccc(N)cc45)cc3)cc2)cc1
- T/C (dose: 4.32 mg/kg/injection, schedule: Q01DX009 (ip), vehicle: water): 141 % of control
- survivor count (dose: 12.0 mg/kg/injection, schedule: Q01DX009 (ip), vehicle: water): 3 of 8
- survivor count (dose: 20.0 mg/kg/injection, schedule: Q01DX009 (ip), vehicle: water): 2 of 8

SMILES: COc1cccc2c1C(=O)c1c(O)c3c(c(O)c1C2=O)C[C@@](O)(C(C)=O)C[C@@H]3OC1CC(N)C(O)C(C)O1 (some centres undefined)
- T/C (dose: 2.88 mg/kg/injection, schedule: Q04DX003 (ip), vehicle: water): 130 % of control
- survivor count [3]: 8 of 8

SMILES: CC(C)CCCCCCCCCCCCC(=O)NCC(=O)NC1C(C)OC(Nc2ncnc3nc[nH]c23)C(O)C1O (centres undefined)
- T/C (dose: 432.0 micrograms/kg/injection, schedule: Q04DX003 (ip), vehicle: saline): 128 % of control
- T/C (dose: 720.0 micrograms/kg/injection, schedule: Q04DX003 (ip), vehicle: saline): 137 % of control [7 of 8 alive]
- T/C (dose: 1200.0 micrograms/kg/injection, schedule: Q04DX003 (ip), vehicle: saline): 129 % of control [7 of 8 alive]
- T/C (dose: 2000.0 micrograms/kg/injection, schedule: Q04DX003 (ip), vehicle: saline): 149 % of control
